Data published in US4199499A, “Pharmacologically active peptides” (Eli Lilly and Company, priority 1978, dated 1980).
At least one peptide structure holds a part that was inferred or is arguable (an end, a ring closure or a residue).

Tested on: mouse
Assay: mouse hot plate test
Format: in vivo
Details: 15 minutes after administration, hot plate 52° C.
Experimental: The compounds of this invention are useful as analgesics. […] In this test, a mouse is placed inside an upright acrylic cylinder comprising, as its base, a hot plate surface which is maintained at 52° C. The mouse is given, by subcutaneous injection, a predetermined amount of test compound dissolved or suspended in a suitable carrier, and, 15 minutes after administration of the test compound, the mouse is placed on the hot plate surface. The latencies in seconds until the occurrence of each of two separate phenomena then are recorded. First the latency until the mouse licks its hind paw is measured, and, secondly, the latency until the mouse jumps from the hot plate surface is measured. […] This must occur in a dose range which produces no motor incoordination or incapacitation. The following Table records the results obtained from this test, reflected in terms of increase over saline control. Each data point was determined using ten treated and ten control mice, and each represents the difference in mean response latency between treated and control animals. The mean control latency for the hind paw lick response was 28.4±0.9 seconds determined from eight groups of ten control mice each. The mean control jump latency was 52.4±3.7 seconds for studies run in the a.m. and 75.9±6.0 seconds for studies run in the p.m. as determined from four groups of ten mice each in the a.m. and four groups of ten mice each in the p.m.

SMILES | Latency, Increase in Seconds over Control, escape jump (EJ) (dose 3 mg/kg subcutaneous) | Latency, Increase in Seconds over Control, hind paw lick (HPL) (dose 3 mg/kg subcutaneous) | Latency, Increase in Seconds over Control, escape jump (EJ) (dose 10 mg/kg subcutaneous) | Latency, Increase in Seconds over Control, hind paw lick (HPL) (dose 10 mg/kg subcutaneous) | Latency, Increase in Seconds over Control, escape jump (EJ) (dose 30 mg/kg subcutaneous) | Latency, Increase in Seconds over Control, hind paw lick (HPL) (dose 30 mg/kg subcutaneous) | Latency, Increase in Seconds over Control, escape jump (EJ) (dose 1 mg/kg subcutaneous) | Latency, Increase in Seconds over Control, hind paw lick (HPL) (dose 1 mg/kg subcutaneous)
CSCCC(C)(NC(=O)[C@H](Cc1ccccc1)NC(=O)CNC(=O)[C@@H](C)NC(=O)[C@@H](N)Cc1ccc(O)cc1)C(N)=O (stereo partly drawn) [A, L-Tyrosyl-D-alanyl-glycyl-L-phenylalanyl-D,L-α-methylmethionylamide] | 44.1 s | 5.9 s | 71.5 s | 15.3 s | 114.8 s | 15.9 s | – | –
CC(C)CC(C)(NC(=O)[C@H](Cc1ccccc1)NC(=O)CNC(=O)[C@@H](C)NC(=O)[C@@H](N)Cc1ccc(O)cc1)C(N)=O (stereo partly drawn) [B, L-Tyrosyl-D-alanyl-glycyl-L-phenylalanyl-D,L-α-methylleucine Amide] | 88.3 s | 7.2 s | 122.8 s | 11.5 s | 182.6 s | 112.8 s | 39.8 s | 8.8 s
